# Earlier results as cited in patent US20120277269A1 (priority 2008, published 2012).
# Read-outs that look alike come from different tables or passages of the source. For at least one compound, name, drawing or mass did not settle the structure.
# Key:
# AF patients [1] = conditions: SPORTIF III; Warfarin vs. Ximelagatran; mean follow-up 1.45 years; cited from earlier work
# AF patients [2] = conditions: SPORTIF V; Warfarin vs. Ximelagatran; mean follow-up 1.66 years; cited from earlier work
compound,measurement,setting,value
CCOC(=O)CN[C@@H](C(=O)N1CC[C@H]1C(=O)NCc1ccc(/C(N)=N\O)cc1)C1CCCCC1 [Ximelagatran],Myocardial Infarction,AF patients [1],1.1%
same,Myocardial Infarction,AF patients [2],1.0%
